PubChem BioAssay AID504804, Drosophila RNAi Screening Center | 2011
The deposit covers about 19,000 reagents; this is a random part of those with a known target gene and a result. Of all reagents, 47 (0.25%) were called active. 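Signals are raw, not normalised; exact z-scores behind calls not deposited; actives needed confirmation, so some wells reaching 2 SD are inactive.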 Reagents against one gene are numbered here. Names joined by + are all predicted targets of the reagent. No sequences are given here.

- Purpose: 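Knock-downs shielding fly cells from apoptosis caused by DNA damage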 (primary screen)
- Cell system: Drosophila Kc cells
- Reagent: long dsRNA against Drosophila genes, 0.5 µg dsRNA per well
- Duration: 96 h (48 h knock-down, then 48 h drug)
- Conditions: doxorubicin 5 µg/ml for 48 h, added 48 h after dsRNA
- Read-out: 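Viability measured as cellular ATP by luminescence after 48 h knock-down then 48 h doxorubicin at 5 µg/ml; unnormalised plate counts for each replicate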
- Reading the numbers: raw ATP luminescence: higher = more viable cells, protection from doxorubicin
- Rule for the call: 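Active when both duplicate wells lie at least 2 SD above the plate mean and protection is confirmed by rescreening and independent dsRNAs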

no.	predicted target	dsRNA no.	SD above plate mean	raw ATP luminescence, replicate 1	raw ATP luminescence, replicate 2	Call
1	CG5199 (GeneID 40265)	1		68797	65100	inactive
2	mRpL49 (GeneID 32242)	1		3.61e5	3.54e5	inactive
3	CG15548 (GeneID 43667)	1		48090	39000	inactive
4	Gr93a (GeneID 42568)	1		60060	73020	inactive
5	CG13937 (GeneID 38249)	1		1.97e5	1.97e5	inactive
6	RhoGAP1A (GeneID 5740235)	1		3.57e5	3.51e5	inactive
7	RhoGAP1A (GeneID 5740235)	2		3.88e5	3.65e5	inactive
8	ema (GeneID 41992)	1		1.11e5	1.05e5	inactive
9	CG2006 + Spase12	1		35610	40890	inactive
10	CG17834 (GeneID 34191)	1		1.33e5	93073	inactive
11	lin (GeneID 45325)	1		37260	91293	inactive
12	CG13135 (GeneID 34345)	1		36737	76253	inactive
13	Obp18a (GeneID 32897)	1		4.14e5	3.71e5	inactive
14	Dad1 (GeneID 34159)	1		34963	44410	inactive
15	CG6972 (GeneID 42684)	1		60800	57790	inactive

An excerpt from above, reduced to “raw ATP luminescence, replicate 2”.
CG13135 (GeneID 34345)	76253
Obp18a (GeneID 32897)	3.71e5
Dad1 (GeneID 34159)	44410

The listing continues.
no.	predicted target	dsRNA no.	SD above plate mean	raw ATP luminescence, replicate 1	raw ATP luminescence, replicate 2	Call
16	Tehao (GeneID 34761)	1		17630	78373	inactive
17	CG42568 + DnaJ-60	1		40343	48383	inactive
18	CG42568 + DnaJ-60	2		75377	65570	inactive
19	cv-d (GeneID 41921)	1		53483	46143	inactive
20	cv-d (GeneID 41921)	2		82140	79240	inactive
21	cv-d (GeneID 41921)	3		96440	96750	inactive
22	CG4597 (GeneID 38604)	1		74873	82937	inactive
23	Pus1 (GeneID 42440)	1		72720	79700	inactive
24	CG5024 (GeneID 43117)	1		72490	69660	inactive
25	CG6041 (GeneID 31527)	1		38370	52220	inactive
26	CG6689 (GeneID 41345)	1		37220	22673	inactive
27	CG7988 (GeneID 42180)	1		67950	87440	inactive
28	CG12035 (GeneID 38217)	1		64713	77380	inactive
29	kumpel (GeneID 43136)	1		73710	57860	inactive
30	kumpel (GeneID 43136)	2		67260	81760	inactive
31	kumpel (GeneID 43136)	3		66300	67800	inactive
32	kumpel (GeneID 43136)	4		83830	79770	inactive
33	kumpel (GeneID 43136)	5		82110	99060	inactive
34	kumpel (GeneID 43136)	6	at least 2 SD above plate mean	1.02e5	92640	inactive
